According to patent publication US20250250335A1:

B1: Antibody 14 (antibody, V domains shown)
VH: EVQLVETGGGLVQPKGSLKLSCAASGFSFNTNAMNWVRQAPGKGLEWVARIRSKSNNYATYYADSVKDRFTISRDDSQSMLYLQMNNLKTEDTAMYYCVSFLSLMDYWGQGTSVTVSS
VL: QIVLTQSPAIMSASPGEKVTMTCSASSSISYMHWYQQKPGTSPKRWIYDTSKLASGVPARFSGSGSGTSYSLTISSMEAEDAATYYCHQRSSYPWTFGGGTKLEIK
B2: Antibody 15 (antibody, V domains shown)
VH: QVQLQQPGAELVKPGASVTLSCKASGYTFTSYWINWVKQRPGQGLEWIGNIYPYTSSSNYNEKFKGKATLTVDTSSNTAYMQLSGLTSDDSAVYFCARKGNIYYSYESYPLDFWGQGTSVTVSS
VL: DIQMTQSSSSFSVSLGDRVTITCKASEDIYKQIGWYQQKPGNAPRLLIAGATSLETGVPSRFSGSGSGKDYMLNITSLQTEDVGSYYCQQYWSPPFTFGSGTKLEIK
B3: Antibody 1 (antibody, V domains shown)
VH: QVQLKQSGAELVRPGASVKLSCKTSGYIFTSYWIHWVKQRSGQGLEWIARIYPGTGSTYYNEKFKGKATLTADKSSSTAYMQLSSLKSEDSAVYFCARSGFPLTTVPLDYWGQGTTLTVSS
VL: DVQITQSPSYLAASPGETITINCRASKSISKYLAWYQEKPGKTNKLLIYSGSTLQSGIPSRFSGSGSGTDFTLTISSLEPEDFAMYYCQQHNEYPFTFGSGTKLEIK
B4: Antibody 12 (antibody, V domains shown)
VH: EVKLVESGGGLVQPGGSLSLSCAVSGFIFTDYFMSWVRQPPGKTLEWLALIRNKANGYIIEYSESVKGRFTISRGNSQSIFYLQMNALRTEDSATYYCARDIGIRWNFDVWGAGTTVTVSS
VL: QIVLTQSPAIMSASPGEKVTMTCSATSRVTYMHWYQQKSGTSPKRWIYATSTLASGVPARFSGSGSGTSYSLTISSMEAEDAATYYCQQWSYNPPTFGSGTKLEIK
B5: Antibody 13 (antibody, V domains shown)
VH: EVKLVESGGGLVQPGGSLSLSCTASGFTLTDYYMSWVRQPPGRALEWLALIRNKVNGYTIEYSASVKGRFTISRDNSQSILYLQMNALRAEDSATYYCARDIGIRWYFDVWGAGTTVTVSS
VL: QIVLSQSPAILSASPGEKVTMTCRASSSVSYMHWYQQKPGSSPKPWIYATSNLASGVPARFSGSGSGTSYSLTISRMEAEDAATYYCQQWSGNPPTFGGGTKLEIK

Experiments:
monkey CEACAM5 (monkey) [1] = test: ELISA on coated protein
monkey CEACAM6 (monkey) [2] = test: ELISA on coated protein
monkey CEACAM5 (monkey) [3] = test: ELISA on coated protein, OD450
monkey CEACAM6 (monkey) [4] = test: ELISA on coated protein, OD450

Binder | binding (monkey CEACAM5 (monkey) [1]) | binding (monkey CEACAM6 (monkey) [2]) | binding (monkey CEACAM5 (monkey) [3]) | binding (monkey CEACAM6 (monkey) [4])
B1 | binds | binds | binds | binds
B2 | binds | binds | binds | binds
B3 |  | binds |  | binds
B4 |  | binds |  | binds
B5 |  | binds |  | binds

Results are given in words; binding and its absence hold for the method and conditions named. Binding can be weak; no strength is given.
